{"sequences": {"note": "Sequences of proteins named here, by UniProt entry; tags and fusion partners are left off. A change or cut given only in a name is not applied to a line headed by its entry. A line that says so, or that is headed by a name, gives the form on record, which may keep a tag or linker.", "cynomolgus monkey C2 (G8F3W0, form named)": "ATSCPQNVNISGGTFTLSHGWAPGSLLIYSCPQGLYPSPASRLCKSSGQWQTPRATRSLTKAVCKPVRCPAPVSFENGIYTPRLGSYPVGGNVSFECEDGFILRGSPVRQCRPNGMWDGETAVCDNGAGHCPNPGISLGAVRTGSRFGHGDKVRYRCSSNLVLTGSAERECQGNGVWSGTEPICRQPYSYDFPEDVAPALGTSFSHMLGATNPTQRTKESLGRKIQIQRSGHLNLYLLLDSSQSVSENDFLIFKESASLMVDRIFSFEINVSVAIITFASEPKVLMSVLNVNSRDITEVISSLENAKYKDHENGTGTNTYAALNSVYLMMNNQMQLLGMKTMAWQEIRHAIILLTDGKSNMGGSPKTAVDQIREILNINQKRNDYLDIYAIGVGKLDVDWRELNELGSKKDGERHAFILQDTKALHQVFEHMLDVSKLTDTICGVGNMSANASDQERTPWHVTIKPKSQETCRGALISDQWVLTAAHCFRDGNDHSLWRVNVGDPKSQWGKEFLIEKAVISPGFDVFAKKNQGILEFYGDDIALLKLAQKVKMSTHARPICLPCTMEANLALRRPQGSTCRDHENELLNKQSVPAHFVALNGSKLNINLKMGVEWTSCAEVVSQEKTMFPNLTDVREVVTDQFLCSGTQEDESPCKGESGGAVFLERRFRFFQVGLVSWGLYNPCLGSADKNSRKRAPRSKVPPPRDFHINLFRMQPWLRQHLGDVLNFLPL"}, "source": "patent US20220332804A1", "binders": {"B1": {"name": "RF16-191 (antibody, V domains shown)", "VH": "EVQLLESGGGLVQPGGSLRLSCAASGFTFSKYWMGWVRQATGKGLEWVSSIYSSGGWTYYADSVKGRFTISRDNSKNTLYLQMNSLRAEDTAVYYCARRPRSFSGSYYRAFDIWGQGTMVTVSS", "VL": "DIQMTQSPSSLSASVGDRVTITCRASQSITDYLNWYQQRPGKAPKLLIYAASSLQSGVPSRFSGSGSGTDFTLTISGLQPEDFATYYCQQSYSSSITFGQGTRLDLKR"}, "B2": {"name": "RF16-191G (antibody, V domains shown)", "VH": "B1 VH with T41P", "VL": "B1 VL with R39K, G77S"}, "B3": {"name": "RF16-203 (antibody, V domains shown)", "VH": "EVQLLESGGGLVQPGGSLRLSCAASGFTFSRYYMMWVRQAPGKGLEWVSSIGSSGGTTNYADSVKGRFTISRDNSKNTLYLQMNSLRAEDTATYYCAKGGMVLGVVNIWGQGTLVTVSS", "VL": "QSALTQPPSVSVSPGQTATITCSGDKLGEKYVSWYQQKPGQSPVVVIFQDIKRPSGIPERFSGSNSGNTATLTISGTQAMDEADYYCQTWGTGGIQVFGGGTKLTVLR"}, "B4": {"name": "RF16-203G (antibody, V domains shown)", "VH": "B3 VH with T93V", "VL": "B3 VL with Q1S, S2Y, A3E, T19S, V45L, F48Y, R108G"}, "B5": {"name": "RF16-214 (antibody, V domains shown)", "VH": "EVQLLESGGGLVQPGGSLRLSCAASGFTFSWYQMMWVRQAPGKGLEWVSRIYPSGGGTAYADSVKGRFTISRDNSKNTLYLQMNSLRAEDTAVYYCARDAGYGDNWGQGTLVTVSS", "VL": "QSALTQPPSVSVSPGQTASITCSGDKLGEKYASWYQQKAGQSPVMVIYQDRKRPSGIPERFSGSNSGNTATLTISGTQAMDEADYYCQAWDTRAVVFGGGTKLTVLG"}, "B6": {"name": "RF16-214G (antibody, V domains shown)", "VH": "B5 VH", "VL": "B5 VL with Q1S, S2Y, A3E, A39P, M45L"}, "B7": {"name": "RF16-242 (antibody, V domains shown)", "VH": "EVQLLQSGAEVKKPGESLKISCKGSGYSFTSYWIGWVRQMPGKGLEWMGIIYPGDSDTRYSPSFQGQVTISADKSISTAYLQWSSLKASDTAMYYCARRGHYGDYFDYWGQGTLVTVSS", "VL": "SYELTQPPSVSVSPGQTARITCSGDALPKKYAYWYHQKSGQAPVLVIYEDRRRPSEIPERFSGSSSGTMATLTITGAQVEDEGVYFCYSRDRAGNQRVFGGGTQLTVLG"}, "B8": {"name": "RF16-242G (antibody, V domains shown)", "VH": "B7 VH with L5V", "VL": "B7 VL with H36Q, E56G, T75S, G83A, V84D, F86Y"}}, "note": "Substitutions are numbered along the chain they refer to. No constants are given. Whether binding was seen depends on the method and setting. Some entries that bind do so weakly or less than the wild type."}
{"target": "cynomolgus monkey C2 (cynomolgus monkey) (UniProt G8F3W0)", "experiment": "SPR, neutral pH"}
{"binder": "B1", "binding": "binds"}
{"binder": "B2", "binding": "binds"}
{"binder": "B3", "binding": "binds"}
{"binder": "B4", "binding": "binds"}
{"binder": "B5", "binding": "binds"}
{"binder": "B6", "binding": "binds"}
{"binder": "B7", "binding": "binds"}
{"binder": "B8", "binding": "binds"}
